Among the data in publication PMC3821618 are binding values, retold here.

These are yes or no findings as the source states them, for the method shown.

The target in test [1] is T1, mRuby2-BZip (rat), P05554.
T1 chain: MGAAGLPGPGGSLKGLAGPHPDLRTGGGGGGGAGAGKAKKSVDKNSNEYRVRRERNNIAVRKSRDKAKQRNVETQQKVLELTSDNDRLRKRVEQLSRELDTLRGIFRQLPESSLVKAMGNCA
Description: fluorescence correlation spectroscopy (FCS), molecular brightness analysis; live transfected mouse GHFT1 cells, cytosol; molecular brightness Mb = CPS/(N*Po) from one-component autocorrelation fits, compared with published intrinsic brightness and between FP alone and FP-BZip; 561 nm excitation, 36 °C, 5% CO2. The following applies: remark: other sources report otherwise.

Test [2] addresses T2, mCherry-BZip (rat), P05554.
T2 chain: T1 chain
Described as above. The following applies: remark: other sources report otherwise.

B1: mRuby2-BZip, P05554 237-358 (domain or fragment)
chain: T1 chain
On to B1, for which, in test [1], the binding entry is given as “no binding”.

B2: mCherry-BZip, P05554 237-358 (domain or fragment)
chain: T1 chain
For the molecule B2, in test [2], the binding result is reported as “no binding”.
